Our source for the binding values is US20230374127A1 (LG CHEM, published 2023).

Protein sequences, listed by entry. Tags and fused reporters are not part of them. Residues count along the entry.
UniProt Q8NHL6, residues 24-650: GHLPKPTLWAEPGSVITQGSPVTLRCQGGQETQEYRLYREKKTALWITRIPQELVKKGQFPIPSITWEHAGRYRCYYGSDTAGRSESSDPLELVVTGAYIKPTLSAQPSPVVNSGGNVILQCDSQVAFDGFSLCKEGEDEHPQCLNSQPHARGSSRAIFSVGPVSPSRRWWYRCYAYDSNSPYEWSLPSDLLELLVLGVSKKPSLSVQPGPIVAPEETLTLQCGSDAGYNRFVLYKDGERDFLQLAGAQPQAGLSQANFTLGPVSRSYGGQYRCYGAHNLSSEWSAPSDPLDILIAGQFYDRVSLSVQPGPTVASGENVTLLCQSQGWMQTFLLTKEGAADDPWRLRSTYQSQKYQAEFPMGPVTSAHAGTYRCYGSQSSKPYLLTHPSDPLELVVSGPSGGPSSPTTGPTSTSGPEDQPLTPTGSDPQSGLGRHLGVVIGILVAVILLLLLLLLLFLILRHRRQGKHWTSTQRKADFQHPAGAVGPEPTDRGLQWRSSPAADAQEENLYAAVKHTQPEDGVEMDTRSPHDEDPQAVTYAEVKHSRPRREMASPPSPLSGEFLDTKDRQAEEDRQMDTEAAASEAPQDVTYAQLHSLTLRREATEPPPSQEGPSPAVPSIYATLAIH

Test [1] addresses LILRB1 on CHO cells overexpressing LILRB1 (UniProt Q8NHL6). Put plainly: flow cytometry on CHO cells overexpressing LILRB1, antibody at 10 ug/mL.
For test [2] the target is unchanged. Put plainly: flow cytometry (iQue screener) on LILRB1 overexpressing CHO cells, antibody at 10 ug/mL, anti-human Fc-biotin and streptavidin PE.

Results are given in words; binding and its absence hold for the method and conditions named. Some binding calls cover weakened binding; strength is not graded here.

B1: anti-LILRB1 antibody No. 10 (antibody, human IgG4 S228P, kappa, F234A L235A, V domains shown)
VH: QVQLVQSGAEVKKPGSSVKVSCKASGGTFSSHYMHWVRQAPGQGLEWMGWISPYLGSTNYAQKFQGRVTITADESTSTAYMELSSLRSEDTAVYYCARDETGSTYGAFDYWGQGTLVTVSS
VL: DIQMTQSPSSLSASVGDRVTITCRASQSISNYLNWYQQKPGKAPKLLIYAASNLQSGVPSRFSGSGSGTDFTLTISSLQPEDFATYYCQQSYSFPFTFGQGTKVEIKR
notes: Human IgG4 / kappa, expressed in ExpiCHO-S cells; also called clone 10
Consider B1, for which the binding entry in test [1] and in test [2] was “binds” each time.
